Reference: the supplement of paper PMC10849652
The list shows a part of the results.

By UniProt entry, the sequences of proteins in these tests, tags left out. Where a name states a change or a piece, a line headed by the entry shows the natural chain unless it says otherwise.
UniProt Q14956: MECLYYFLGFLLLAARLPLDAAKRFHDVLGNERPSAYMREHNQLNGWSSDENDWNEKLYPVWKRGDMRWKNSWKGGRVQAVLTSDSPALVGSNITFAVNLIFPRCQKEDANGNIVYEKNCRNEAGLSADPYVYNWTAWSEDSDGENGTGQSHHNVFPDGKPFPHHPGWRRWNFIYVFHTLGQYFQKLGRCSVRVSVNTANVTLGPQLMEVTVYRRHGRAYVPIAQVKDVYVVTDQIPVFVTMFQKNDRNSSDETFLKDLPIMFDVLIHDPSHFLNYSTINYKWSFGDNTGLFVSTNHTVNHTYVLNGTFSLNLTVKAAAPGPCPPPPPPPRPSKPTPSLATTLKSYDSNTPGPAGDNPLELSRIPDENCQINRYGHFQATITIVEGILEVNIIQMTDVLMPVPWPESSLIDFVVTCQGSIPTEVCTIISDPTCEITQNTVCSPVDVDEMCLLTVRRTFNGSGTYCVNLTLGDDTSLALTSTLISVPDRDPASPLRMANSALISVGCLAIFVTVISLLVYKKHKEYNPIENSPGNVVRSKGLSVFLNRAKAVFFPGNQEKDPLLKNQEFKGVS
UniProt Q99795: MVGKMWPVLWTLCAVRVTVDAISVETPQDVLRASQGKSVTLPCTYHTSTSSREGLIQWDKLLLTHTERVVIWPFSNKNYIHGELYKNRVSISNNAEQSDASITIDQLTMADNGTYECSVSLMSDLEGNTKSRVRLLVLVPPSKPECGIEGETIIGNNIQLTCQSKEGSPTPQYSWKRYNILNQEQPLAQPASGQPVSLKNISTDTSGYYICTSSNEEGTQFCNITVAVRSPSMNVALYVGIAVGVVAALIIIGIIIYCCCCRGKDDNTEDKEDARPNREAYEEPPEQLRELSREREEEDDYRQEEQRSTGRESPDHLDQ
UniProt Q13439: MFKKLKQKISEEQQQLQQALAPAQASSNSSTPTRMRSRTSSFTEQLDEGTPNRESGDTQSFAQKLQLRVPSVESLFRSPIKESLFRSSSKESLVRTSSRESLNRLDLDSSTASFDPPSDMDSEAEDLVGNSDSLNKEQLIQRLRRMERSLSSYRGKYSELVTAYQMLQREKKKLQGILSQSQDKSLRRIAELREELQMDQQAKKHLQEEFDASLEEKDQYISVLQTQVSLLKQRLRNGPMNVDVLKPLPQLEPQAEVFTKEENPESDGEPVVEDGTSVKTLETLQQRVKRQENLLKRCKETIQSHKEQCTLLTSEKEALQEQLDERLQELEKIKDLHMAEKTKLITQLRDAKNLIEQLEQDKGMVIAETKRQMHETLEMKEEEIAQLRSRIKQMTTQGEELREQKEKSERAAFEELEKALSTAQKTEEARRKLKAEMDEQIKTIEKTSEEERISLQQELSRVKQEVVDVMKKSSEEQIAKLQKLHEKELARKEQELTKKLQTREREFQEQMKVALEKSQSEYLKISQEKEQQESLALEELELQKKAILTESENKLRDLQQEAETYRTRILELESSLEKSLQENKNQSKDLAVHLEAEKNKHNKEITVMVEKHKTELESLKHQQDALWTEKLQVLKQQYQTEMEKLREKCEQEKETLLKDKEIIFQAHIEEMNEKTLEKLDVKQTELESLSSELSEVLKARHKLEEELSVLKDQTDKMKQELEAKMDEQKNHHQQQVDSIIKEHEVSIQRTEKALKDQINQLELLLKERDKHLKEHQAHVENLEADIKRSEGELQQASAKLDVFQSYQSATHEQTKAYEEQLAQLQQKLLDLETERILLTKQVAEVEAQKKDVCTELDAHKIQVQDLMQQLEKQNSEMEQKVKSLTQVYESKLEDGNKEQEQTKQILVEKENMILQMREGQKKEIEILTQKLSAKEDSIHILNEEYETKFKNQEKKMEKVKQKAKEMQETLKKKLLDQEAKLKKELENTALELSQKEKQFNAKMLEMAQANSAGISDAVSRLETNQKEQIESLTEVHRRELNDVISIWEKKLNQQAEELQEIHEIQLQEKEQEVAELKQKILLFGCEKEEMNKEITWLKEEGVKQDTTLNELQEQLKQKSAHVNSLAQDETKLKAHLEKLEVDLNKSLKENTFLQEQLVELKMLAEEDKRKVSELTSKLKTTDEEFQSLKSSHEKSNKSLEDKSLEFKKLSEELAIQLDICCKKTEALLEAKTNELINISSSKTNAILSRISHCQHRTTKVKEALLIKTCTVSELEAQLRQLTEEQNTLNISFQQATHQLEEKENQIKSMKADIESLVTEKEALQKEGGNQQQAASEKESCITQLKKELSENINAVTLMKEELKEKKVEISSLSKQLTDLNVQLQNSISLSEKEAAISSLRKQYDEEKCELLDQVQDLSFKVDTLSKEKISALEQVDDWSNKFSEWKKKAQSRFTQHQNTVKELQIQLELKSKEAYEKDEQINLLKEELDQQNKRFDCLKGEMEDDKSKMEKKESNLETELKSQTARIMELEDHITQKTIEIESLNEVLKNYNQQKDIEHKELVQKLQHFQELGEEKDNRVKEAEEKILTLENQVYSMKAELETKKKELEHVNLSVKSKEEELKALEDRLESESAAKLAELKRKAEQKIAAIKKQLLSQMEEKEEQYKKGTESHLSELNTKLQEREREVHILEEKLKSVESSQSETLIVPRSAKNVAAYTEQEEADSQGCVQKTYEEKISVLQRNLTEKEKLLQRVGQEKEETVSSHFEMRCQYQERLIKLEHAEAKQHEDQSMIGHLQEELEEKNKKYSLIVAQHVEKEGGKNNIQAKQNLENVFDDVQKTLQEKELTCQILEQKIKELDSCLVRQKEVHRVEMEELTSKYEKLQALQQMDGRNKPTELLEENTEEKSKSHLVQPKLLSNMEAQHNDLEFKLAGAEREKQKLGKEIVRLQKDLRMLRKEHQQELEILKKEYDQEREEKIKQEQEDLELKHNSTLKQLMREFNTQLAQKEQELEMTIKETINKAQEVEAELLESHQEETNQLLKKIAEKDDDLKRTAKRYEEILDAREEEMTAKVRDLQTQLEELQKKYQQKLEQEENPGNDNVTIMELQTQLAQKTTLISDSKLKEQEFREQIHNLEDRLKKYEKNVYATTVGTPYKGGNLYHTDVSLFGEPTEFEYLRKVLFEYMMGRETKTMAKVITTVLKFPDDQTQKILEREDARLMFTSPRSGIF
UniProt Q9BQQ3: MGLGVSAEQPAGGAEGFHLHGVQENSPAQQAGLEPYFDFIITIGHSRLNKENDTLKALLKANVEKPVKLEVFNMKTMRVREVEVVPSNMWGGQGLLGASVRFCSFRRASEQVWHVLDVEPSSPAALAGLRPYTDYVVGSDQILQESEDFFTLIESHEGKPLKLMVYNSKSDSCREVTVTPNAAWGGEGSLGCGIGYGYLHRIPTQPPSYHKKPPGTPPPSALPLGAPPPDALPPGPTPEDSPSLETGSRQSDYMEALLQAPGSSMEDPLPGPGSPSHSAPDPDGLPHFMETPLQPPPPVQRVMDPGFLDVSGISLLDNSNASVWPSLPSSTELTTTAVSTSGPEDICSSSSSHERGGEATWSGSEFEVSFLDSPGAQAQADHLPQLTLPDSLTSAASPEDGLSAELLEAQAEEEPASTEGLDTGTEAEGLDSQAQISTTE
UniProt P80108: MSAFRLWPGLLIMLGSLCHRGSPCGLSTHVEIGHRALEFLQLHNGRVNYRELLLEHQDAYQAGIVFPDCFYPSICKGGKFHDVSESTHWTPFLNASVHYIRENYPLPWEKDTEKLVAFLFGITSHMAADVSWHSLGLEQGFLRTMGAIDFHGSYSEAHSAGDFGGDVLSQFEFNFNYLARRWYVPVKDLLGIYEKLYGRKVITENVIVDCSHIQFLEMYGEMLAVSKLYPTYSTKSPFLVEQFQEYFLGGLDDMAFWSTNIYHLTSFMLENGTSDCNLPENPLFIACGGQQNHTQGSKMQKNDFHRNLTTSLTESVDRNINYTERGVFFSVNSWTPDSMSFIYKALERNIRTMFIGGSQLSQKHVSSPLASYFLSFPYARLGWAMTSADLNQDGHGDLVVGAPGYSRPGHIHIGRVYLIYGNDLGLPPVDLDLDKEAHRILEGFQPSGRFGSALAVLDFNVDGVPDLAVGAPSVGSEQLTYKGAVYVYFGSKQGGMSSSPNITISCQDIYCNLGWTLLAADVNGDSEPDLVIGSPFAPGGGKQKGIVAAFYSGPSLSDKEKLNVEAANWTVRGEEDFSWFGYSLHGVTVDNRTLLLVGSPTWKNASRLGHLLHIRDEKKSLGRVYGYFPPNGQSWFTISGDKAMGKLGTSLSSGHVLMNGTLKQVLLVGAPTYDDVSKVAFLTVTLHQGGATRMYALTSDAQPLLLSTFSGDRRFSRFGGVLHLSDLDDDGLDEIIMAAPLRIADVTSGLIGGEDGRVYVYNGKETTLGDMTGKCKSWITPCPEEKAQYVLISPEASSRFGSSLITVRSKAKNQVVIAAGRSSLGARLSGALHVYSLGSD
UniProt Q15743: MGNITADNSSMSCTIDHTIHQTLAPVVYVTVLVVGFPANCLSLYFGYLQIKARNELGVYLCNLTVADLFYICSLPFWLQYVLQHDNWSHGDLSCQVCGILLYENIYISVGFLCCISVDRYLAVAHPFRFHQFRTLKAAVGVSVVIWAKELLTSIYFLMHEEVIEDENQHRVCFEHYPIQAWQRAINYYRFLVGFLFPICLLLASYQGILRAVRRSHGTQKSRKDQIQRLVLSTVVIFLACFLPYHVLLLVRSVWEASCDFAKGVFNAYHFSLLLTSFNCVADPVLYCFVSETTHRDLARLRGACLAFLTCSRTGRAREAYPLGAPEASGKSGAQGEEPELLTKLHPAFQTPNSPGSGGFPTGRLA
UniProt P63096, whole entry, looked up: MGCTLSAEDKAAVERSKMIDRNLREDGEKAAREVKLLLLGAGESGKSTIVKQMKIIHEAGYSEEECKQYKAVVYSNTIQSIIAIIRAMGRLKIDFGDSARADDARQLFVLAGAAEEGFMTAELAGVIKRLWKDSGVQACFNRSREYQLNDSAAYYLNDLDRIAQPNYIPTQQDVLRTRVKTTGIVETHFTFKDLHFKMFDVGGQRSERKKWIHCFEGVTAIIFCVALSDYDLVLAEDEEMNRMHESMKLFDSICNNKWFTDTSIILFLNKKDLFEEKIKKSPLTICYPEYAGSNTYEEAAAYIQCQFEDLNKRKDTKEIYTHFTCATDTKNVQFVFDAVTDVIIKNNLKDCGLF
UniProt Q86YR5: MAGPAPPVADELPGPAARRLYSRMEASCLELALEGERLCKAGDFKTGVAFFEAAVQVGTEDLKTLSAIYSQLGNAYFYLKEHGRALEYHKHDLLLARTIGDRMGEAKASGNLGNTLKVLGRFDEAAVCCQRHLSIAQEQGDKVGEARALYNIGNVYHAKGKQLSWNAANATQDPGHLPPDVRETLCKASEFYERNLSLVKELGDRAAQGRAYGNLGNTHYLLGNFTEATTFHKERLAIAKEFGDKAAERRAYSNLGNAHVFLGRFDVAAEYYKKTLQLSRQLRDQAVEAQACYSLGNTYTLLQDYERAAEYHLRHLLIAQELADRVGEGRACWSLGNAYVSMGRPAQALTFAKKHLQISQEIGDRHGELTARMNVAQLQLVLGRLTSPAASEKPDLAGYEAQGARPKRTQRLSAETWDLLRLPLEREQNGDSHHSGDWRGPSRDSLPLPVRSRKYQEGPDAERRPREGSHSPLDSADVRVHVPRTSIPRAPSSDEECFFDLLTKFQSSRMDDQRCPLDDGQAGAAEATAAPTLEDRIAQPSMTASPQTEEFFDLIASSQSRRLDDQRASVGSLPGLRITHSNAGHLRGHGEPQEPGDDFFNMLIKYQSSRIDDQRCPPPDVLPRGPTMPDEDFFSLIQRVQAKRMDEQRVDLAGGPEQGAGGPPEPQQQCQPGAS
UniProt P81274: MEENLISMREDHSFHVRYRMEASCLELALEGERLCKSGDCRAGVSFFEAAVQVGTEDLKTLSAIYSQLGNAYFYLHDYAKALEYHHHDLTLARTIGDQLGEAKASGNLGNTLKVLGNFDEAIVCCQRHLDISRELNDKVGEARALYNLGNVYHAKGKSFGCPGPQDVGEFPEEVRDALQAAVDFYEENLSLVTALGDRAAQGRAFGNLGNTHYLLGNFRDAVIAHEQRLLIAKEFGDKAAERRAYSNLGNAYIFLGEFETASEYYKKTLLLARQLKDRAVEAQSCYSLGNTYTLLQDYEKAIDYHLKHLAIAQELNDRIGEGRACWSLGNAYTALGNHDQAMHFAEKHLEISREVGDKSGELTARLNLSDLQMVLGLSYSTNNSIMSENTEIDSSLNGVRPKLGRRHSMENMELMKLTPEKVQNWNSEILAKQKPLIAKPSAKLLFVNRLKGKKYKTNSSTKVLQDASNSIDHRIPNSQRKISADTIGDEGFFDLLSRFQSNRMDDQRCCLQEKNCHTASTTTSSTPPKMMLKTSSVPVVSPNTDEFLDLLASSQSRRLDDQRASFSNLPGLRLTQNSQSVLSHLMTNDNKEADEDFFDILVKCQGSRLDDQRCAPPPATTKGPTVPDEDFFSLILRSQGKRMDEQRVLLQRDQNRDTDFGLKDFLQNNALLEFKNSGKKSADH
UniProt P35754: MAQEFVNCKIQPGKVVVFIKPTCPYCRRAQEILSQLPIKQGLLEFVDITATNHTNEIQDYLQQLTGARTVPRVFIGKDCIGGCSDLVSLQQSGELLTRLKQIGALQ

Assays:
Assay in all cases: log2 fold change, soluble protein after heating vs DMSO (PISA); higher = thermal stabilisation; K562 lysate, 10 uM; active = over 0.2 and 3.5 SD of the protein, either way, in both replicates (recomputed)
alvocidib = compound: CN1CC[C@H](c2c(O)cc(O)c3c(=O)cc(-c4ccccc4Cl)oc23)[C@H](O)C1 [alvocidib]
In short: (§1)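 A 30 min treatment with 10 μM compound was applied to crude K562 extract at 1 mg/mL protein in PBS pH 7.4 with 1 mM MgCl2. Heating for 3 min spanned 48°C-58°C, after which aliquots were pooled, adjusted to 0.5% NP-40 at 4°C and spun at 21,000xg for 90 min. TMTpro 16plex LC-MS/MS of the supernatant, with channel sums equalised, gave values recorded as log-two fold change in thermal stability against solvent controls, from duplicates.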

[1] = compound: CNc1nc(-c2ccc3c(N)n[nH]c3c2)cc(N2C[C@@H](C(=O)NC3CCCCC3)CC[C@H]2C)n1
In short: as §1

alisertib = compound: COc1cc(Nc2ncc3c(n2)-c2ccc(Cl)cc2C(c2c(F)cccc2OC)=NC3)ccc1C(=O)O [alisertib]
In short: as §1

[2] = compound: COc1cc2nc(-c3cc(F)ccc3O)nc(N[C@@H]3CNC[C@H]3C(C)(C)O)c2cc1OC
In short: as §1

gefitinib = compound: COc1cc2ncnc(Nc3ccc(F)c(Cl)c3)c2cc1OCCCN1CCOCC1 [gefitinib]
In short: as §1

lapatinib = compound: CS(=O)(=O)CCNCc1ccc(-c2ccc3ncnc(Nc4ccc(OCc5cccc(F)c5)c(Cl)c4)c3c2)o1 [lapatinib]
In short: as §1

pictilisib = compound: CS(=O)(=O)N1CCN(Cc2cc3nc(-c4cccc5[nH]ncc45)nc(N4CCOCC4)c3s2)CC1 [pictilisib]
In short: as §1

crizotinib = compound: C[C@@H](Oc1cc(-c2cnn(C3CCNCC3)c2)cnc1N)c1c(Cl)ccc(F)c1Cl [crizotinib]
In short: as §1

[3] = compound: C[C@H](C1=CC=C(C=C1)C(=O)NC2=C3C=CNC3=NC=C2)N
In short: as §1

duvelisib = compound: C[C@H](Nc1ncnc2nc[nH]c12)c1cc2cccc(Cl)c2c(=O)n1-c1ccccc1 [duvelisib]
In short: as §1

gandotinib = compound: Cc1cc(Nc2cc(CN3CCOCC3)c3nc(C)c(Cc4ccc(Cl)cc4F)n3n2)n[nH]1 [gandotinib]
In short: as §1

doramapimod = compound: Cc1ccc(-n2nc(C(C)(C)C)cc2NC(=O)Nc2ccc(OCCN3CCOCC3)c3ccccc23)cc1 [doramapimod]
In short: as §1

bafetinib = compound: Cc1ccc(NC(=O)c2ccc(CN3CC[C@H](N(C)C)C3)c(C(F)(F)F)c2)cc1Nc1nccc(-c2cncnc2)n1 [bafetinib]
In short: as §1

[4] = compound: Cc1cccc(CC(=O)N2CCc3c2ccc(-c2cn(C)c4ncnc(N)c24)c3F)n1
In short: as §1

Tubastatin A = compound: CN1CCc2c(c3ccccc3n2Cc2ccc(C(=O)NO)cc2)C1 [Tubastatin A]
In short: as §1

[5] = compound: CNC(=O)C1=CC=CC=C1NC2=NC(=NC=C2Cl)NC3=C(C=C(C=C3)N4CCOCC4)OC
In short: as §1

defactinib = compound: CNC(=O)c1ccc(Nc2ncc(C(F)(F)F)c(NCc3nccnc3N(C)S(C)(=O)=O)n2)cc1 [defactinib]
In short: as §1

encorafenib = compound: COC(=O)N[C@@H](C)CNc1nccc(-c2cn(C(C)C)nc2-c2cc(Cl)cc(NS(C)(=O)=O)c2F)n1 [encorafenib]
In short: as §1

[6] = compound: COC(=O)[C@H](CCSC)NC(=O)C1=C(C=C(C=C1)NC[C@H](CS)N)C2=CC=CC=C2
In short: as §1

tozasertib = compound: Cc1cc(Nc2cc(N3CCN(C)CC3)nc(Sc3ccc(NC(=O)C4CC4)cc3)n2)n[nH]1 [tozasertib]
In short: as §1

Measured: log2 fold change

GPNMB (UniProt Q14956)
inactive: alvocidib -0.247 | [1] 0.898 | alisertib -0.19 | [2] 0.161 | gefitinib 0.015 | lapatinib -0.245 | pictilisib -0.048 | crizotinib -0.409 | [3] -0.703 | duvelisib -0.081 | gandotinib 0.739 | doramapimod -0.094 | bafetinib 0.083 | [4] 0.765

GLIPR2 (UniProt Q9H4G4)
inactive: alvocidib 0.04 | Tubastatin A 0.004 | [5] 0.041 | defactinib 0.018 | [1] 0.065 | encorafenib 0.012 | [6] -0.011 | alisertib 0.018 | [2] -0.023 | gefitinib 0.029 | lapatinib 0.002 | pictilisib -0.027 | crizotinib 0.004 | [3] 0.033 | duvelisib -0.051 | gandotinib -0.021 | tozasertib -0.209 | doramapimod -0.032 | bafetinib 0.008 | [4] -0.03

GPA33 (UniProt Q99795)
inactive: alvocidib -0.349 | Tubastatin A 0.103 | [5] -0.076 | defactinib -0.099 | [1] -0.193 | encorafenib 0.053 | [6] -0.027 | alisertib 0.071 | [2] 0.039 | gefitinib 0.125 | lapatinib -0.064 | pictilisib 0.059 | duvelisib 0.154 | tozasertib -0.015 | bafetinib -0.051 | [4] 0.554
active: [3] -0.584 | gandotinib 0.567

GPBP1L1 (UniProt Q9HC44)
inactive: alvocidib -0.005 | Tubastatin A -0.055 | [5] 0.008 | defactinib 0.022 | [1] 0.006 | encorafenib 0.067 | [6] -0.057 | [2] -0.034 | lapatinib -0.011 | pictilisib 0.047 | crizotinib 0.012 | [3] -0.037 | duvelisib -0.028 | gandotinib 0.136 | tozasertib 0.043 | doramapimod 0.059 | bafetinib -0.016 | [4] 0.042

GOLIM4 (UniProt F8W785)
inactive: alvocidib -0.015 | crizotinib -0.014 | [3] 0.064 | gandotinib -0.035 | doramapimod 0.016 | [4] -0.028

GOLGA4 (UniProt Q13439)
inactive: Tubastatin A -0.011 | [5] -0.027 | defactinib 0.09 | [1] 0.05 | encorafenib -0.052 | [6] 0.102 | alisertib -0.088 | gefitinib -0.083 | pictilisib 0.401 | crizotinib -0.016 | duvelisib 0.001 | tozasertib -0.137 | doramapimod 0.008 | bafetinib 0

GPAM (UniProt Q9HCL2)
inactive: Tubastatin A -0.011

GPRASP2 (UniProt Q96D09)
inactive: Tubastatin A -0.109 | defactinib 0.071 | encorafenib 0.13 | [6] -0.023 | alisertib -0.09 | gefitinib 0.121 | pictilisib 0.104 | tozasertib -0.046 | bafetinib 0.095

GORASP1 (UniProt Q9BQQ3)
inactive: alvocidib -0.052 | Tubastatin A -0.035 | [5] 0.018 | defactinib 0.008 | [1] -0.071 | encorafenib 0.108 | [6] -0.009 | alisertib -0.037 | [2] 0.076 | gefitinib 0.016 | lapatinib -0.031 | crizotinib 0.015 | [3] -0.103 | duvelisib -0.018 | gandotinib 0.002 | tozasertib -0.087 | doramapimod 0.015 | [4] -0.028

GK5 (UniProt Q6ZS86)
inactive: crizotinib -0.227 | doramapimod -0.007

GPLD1 (UniProt P80108)
inactive: [1] -0.452 | crizotinib -0.108 | duvelisib -0.049 | doramapimod 0.081

GPR68 (UniProt Q15743)
inactive: crizotinib -0.082 | doramapimod 0.024

GNAI1 (UniProt P63096)
inactive: alvocidib -0.019 | [3] 0.101 | gandotinib 0.044 | [4] -0.097

GPSM1 (UniProt Q86YR5)
inactive: [5] -0.001 | defactinib -0.007 | encorafenib 0.015 | [6] 0.03 | crizotinib 0.002 | tozasertib -0.031 | doramapimod -0.01

GKAP1 (UniProt Q5VSY0)
inactive: crizotinib -0.051 | doramapimod 0.012

GINM1 (UniProt Q9NU53)
inactive: alvocidib -0.362 | [5] -0.135 | alisertib 0.065 | gefitinib 0.1 | crizotinib -0.243 | [3] -0.667 | gandotinib 0.282 | doramapimod 0 | [4] 0.427

GLCE (UniProt O94923)
inactive: alvocidib -0.007 | Tubastatin A 0.117 | [5] -0.002 | [1] 0.031 | encorafenib 0.016 | [6] -0.101 | alisertib -0.157 | [2] -0.022 | gefitinib 0.153 | lapatinib -0.066 | pictilisib -0.063 | crizotinib -0.1 | [3] -0.146 | duvelisib 0.005 | gandotinib 0.249 | tozasertib 0.023 | doramapimod 0.091 | bafetinib -0.055 | [4] 0.207

Pulled one by one from the entries so far, 2 records:
GKAP1 (UniProt Q5VSY0)
inactive: crizotinib -0.051 | doramapimod 0.012

GNAI1 (UniProt P63096)
inactive: alvocidib -0.019 | [3] 0.101 | gandotinib 0.044 | [4] -0.097

Further results follow.

GPSM2 (UniProt P81274)
inactive: alvocidib -0.139 | [5] 0.041 | defactinib -0.093 | [1] 0.06 | encorafenib 0.024 | [6] -0.496 | alisertib -0.035 | [2] 0.002 | gefitinib -0.073 | lapatinib -0.111 | pictilisib 0.013 | crizotinib -0.082 | [3] -0.313 | duvelisib -0.071 | gandotinib 0.252 | tozasertib 0.042 | doramapimod -0.014 | bafetinib -0.091 | [4] 0.244

GLRX (UniProt P35754)
inactive: defactinib 0.065 | encorafenib 0.073 | [6] -0.009 | crizotinib -0.016 | tozasertib 0.003 | doramapimod 0.073

GOLGA8R (UniProt I6L899)
inactive: Tubastatin A 0.052 | [5] -0.055 | [1] 0.497 | alisertib -0.078 | [2] 0.152 | gefitinib 0.007 | lapatinib -0.124 | pictilisib -0.068 | crizotinib -0.363 | duvelisib -0.085 | doramapimod 0.073 | bafetinib 0.144
